# Reference: the supplement of paper PMC8728848
# Some of the results follow.
# B1: Protein L(B1-B4) (Finegoldia magna), Q51912 (protein)
# chain: KEETPETPETDSEEEVTIKANLIFANGSTQTAEFKGTFEKATSEAYAYADTLKKDNGEYTVDVADKGYTLNIKFAGKEKTPEEPKEEVTIKANLIYADGKTQTAEFKGTFEEATAEAYRYADALKKDNGEYTVDVADKGYTLNIKFAGKEKTPEEPKEEVTIKANLIYADGKTQTAEFKGTFEEATAEAYRYADLLAKENGKYTVDVADKGYTLNIKFAGKEKTPEEPKEEVTIKANLIYADGKTQTAEFKGTFAEATAEAYRYADLLAKENGKYTADLEDGGYTINIRFAG
# Assays:
# Assay in all cases: glycan array binding signal (z-score within array); higher = stronger binding
# Conditions in all cases: glycan notation: IUPAC condensed, linker removed
# [1] = target: Gal(b1-4)GlcNAc(b1-3)Gal(b1-4)GlcNAc(b1-2)[Gal(b1-4)GlcNAc(b1-3)Gal(b1-4)GlcNAc(b1-6)]Man(a1-6)[Gal(b1-4)GlcNAc(b1-3)Gal(b1-4)GlcNAc(b1-2)Man(a1-3)]Man(b1-4)GlcNAc(b1-4)GlcNAc
# In short: (§1)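 The binding signal is a Z-score computed within each array. Data were drawn from 3228 arrays in the Consortium for Functional Glycomics database, restricted to those with a known protein sequence. Scores were averaged over arrays of the same protein sequence at different concentrations or buffers, and over linkers, and negative values can be taken as non-binding.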
# [2] = target: Gal(b1-4)GlcNAc(b1-3)Gal(b1-4)GlcNAc(b1-2)[Gal(b1-4)GlcNAc(b1-3)Gal(b1-4)GlcNAc(b1-6)]Man(a1-6)[Gal(b1-4)GlcNAc(b1-3)Gal(b1-4)GlcNAc(b1-2)Man(a1-3)]Man(b1-4)GlcNAc(b1-4)[Fuc(a1-6)]GlcNAc
# In short: as §1
# [3] = target: Gal(b1-4)GlcNAc(b1-3)Gal(b1-4)GlcNAc(b1-3)Gal(b1-4)GlcNAc
# In short: as §1
# [4] = target: Gal(b1-4)GlcNAc(b1-3)Gal(b1-4)GlcNAc(b1-3)Gal(b1-4)GlcNAc(b1-2)Man(a1-3)[Gal(b1-4)GlcNAc(b1-3)Gal(b1-4)GlcNAc(b1-3)Gal(b1-4)GlcNAc(b1-2)Man(a1-6)]Man(b1-4)GlcNAc(b1-4)GlcNAc
# In short: as §1
# [5] = target: Gal(b1-4)GlcNAc(b1-3)Gal(b1-4)GlcNAc(b1-3)Gal(b1-4)GlcNAc(b1-2)Man(a1-3)[Gal(b1-4)GlcNAc(b1-3)Gal(b1-4)GlcNAc(b1-3)Gal(b1-4)GlcNAc(b1-2)Man(a1-6)]Man(b1-4)GlcNAc(b1-4)[Fuc(a1-6)]GlcNAc
# In short: as §1
# [6] = target: Gal(b1-4)GlcNAc(b1-3)Gal(b1-4)GlcNAc(b1-3)Gal(b1-4)GlcNAc(b1-2)[Gal(b1-4)GlcNAc(b1-3)Gal(b1-4)GlcNAc(b1-3)Gal(b1-4)GlcNAc(b1-6)]Man(a1-6)[Gal(b1-4)GlcNAc(b1-3)Gal(b1-4)GlcNAc(b1-3)Gal(b1-4)GlcNAc(b1-2)Man(a1-3)]Man(b1-4)GlcNAc(b1-4)[Fuc(a1-6)]GlcNAc
# In short: as §1
# [7] = target: Gal(b1-4)GlcNAc(b1-3)Gal(b1-4)GlcNAc(b1-3)Gal(b1-4)GlcNAc(b1-3)Gal(b1-4)GlcNAc(b1-2)Man(a1-3)[Gal(b1-4)GlcNAc(b1-3)Gal(b1-4)GlcNAc(b1-3)Gal(b1-4)GlcNAc(b1-3)Gal(b1-4)GlcNAc(b1-2)Man(a1-6)]Man(b1-4)GlcNAc(b1-4)GlcNAc
# In short: as §1
# [8] = target: Gal(b1-4)GlcNAc(b1-3)Gal(b1-4)GlcNAc(b1-3)Gal(b1-4)GlcNAc(b1-3)Gal(b1-4)GlcNAc(b1-2)Man(a1-3)[Gal(b1-4)GlcNAc(b1-3)Gal(b1-4)GlcNAc(b1-3)Gal(b1-4)GlcNAc(b1-3)Gal(b1-4)GlcNAc(b1-2)Man(a1-6)]Man(b1-4)GlcNAc(b1-4)[Fuc(a1-6)]GlcNAc
# In short: as §1
# [9] = target: Gal(b1-4)GlcNAc(b1-3)Gal(b1-4)GlcNAc(b1-3)Gal(b1-4)GlcNAc(b1-3)Gal(b1-4)GlcNAc(b1-2)[Gal(b1-4)GlcNAc(b1-3)Gal(b1-4)GlcNAc(b1-3)Gal(b1-4)GlcNAc(b1-3)Gal(b1-4)GlcNAc(b1-6)]Man(a1-6)[Gal(b1-4)GlcNAc(b1-3)Gal(b1-4)GlcNAc(b1-3)Gal(b1-4)GlcNAc(b1-3)Gal(b1-4)GlcNAc(b1-2)Man(a1-3)]Man(b1-4)GlcNAc(b1-4)[Fuc(a1-6)]GlcNAc
# In short: as §1
# [10] = target: Gal(b1-4)GlcNAc(b1-3)Gal(b1-4)GlcNAc(b1-3)Gal(b1-4)GlcNAc(b1-3)Gal(b1-4)GlcNAc(b1-3)Gal(b1-4)GlcNAc(b1-2)Man(a1-3)[Gal(b1-4)GlcNAc(b1-3)Gal(b1-4)GlcNAc(b1-3)Gal(b1-4)GlcNAc(b1-3)Gal(b1-4)GlcNAc(b1-3)Gal(b1-4)GlcNAc(b1-2)Man(a1-6)]Man(b1-4)GlcNAc(b1-4)GlcNAc
# In short: as §1
# [11] = target: Gal(b1-4)GlcNAc(b1-3)Gal(b1-4)GlcNAc(b1-3)Gal(b1-4)GlcNAc(b1-3)Gal(b1-4)GlcNAc(b1-3)Gal(b1-4)GlcNAc(b1-2)Man(a1-3)[Gal(b1-4)GlcNAc(b1-3)Gal(b1-4)GlcNAc(b1-3)Gal(b1-4)GlcNAc(b1-3)Gal(b1-4)GlcNAc(b1-3)Gal(b1-4)GlcNAc(b1-2)Man(a1-6)]Man(b1-4)GlcNAc(b1-4)[Fuc(a1-6)]GlcNAc
# In short: as §1
# [12] = target: Gal(b1-4)GlcNAc(b1-3)Gal(b1-4)GlcNAc(b1-3)Gal(b1-4)GlcNAc(b1-3)Gal(b1-4)GlcNAc(b1-3)Gal(b1-4)GlcNAc(b1-2)[Gal(b1-4)GlcNAc(b1-3)Gal(b1-4)GlcNAc(b1-3)Gal(b1-4)GlcNAc(b1-3)Gal(b1-4)GlcNAc(b1-3)Gal(b1-4)GlcNAc(b1-6)]Man(a1-6)[Gal(b1-4)GlcNAc(b1-3)Gal(b1-4)GlcNAc(b1-3)Gal(b1-4)GlcNAc(b1-3)Gal(b1-4)GlcNAc(b1-3)Gal(b1-4)GlcNAc(b1-2)Man(a1-3)]Man(b1-4)GlcNAc(b1-4)[Fuc(a1-6)]GlcNAc
# In short: as §1
# [13] = target: Gal(b1-4)GlcNAc(b1-3)Gal(b1-4)GlcNAc(b1-3)Gal(b1-4)GlcNAc(b1-3)Gal(b1-4)GlcNAc(b1-3)Gal(b1-4)GlcNAc(b1-3)Gal(b1-4)GlcNAc(b1-2)Man(a1-3)[Gal(b1-4)GlcNAc(b1-3)Gal(b1-4)GlcNAc(b1-3)Gal(b1-4)GlcNAc(b1-3)Gal(b1-4)GlcNAc(b1-3)Gal(b1-4)GlcNAc(b1-3)Gal(b1-4)GlcNAc(b1-2)Man(a1-6)]Man(b1-4)GlcNAc(b1-4)GlcNAc
# In short: as §1
# [14] = target: Gal(b1-4)GlcNAc(b1-3)Gal(b1-4)GlcNAc(b1-3)GalNAc
# In short: as §1
# [15] = target: Gal(b1-4)GlcNAc(b1-3)Gal(b1-4)GlcNAc(b1-3)[Gal(b1-4)GlcNAc(b1-3)Gal(b1-4)GlcNAc(b1-6)]GalNAc
# In short: as §1
# [16] = target: Gal(b1-4)GlcNAc(b1-3)Gal(b1-4)GlcNAc(b1-6)[Gal(b1-3)]GalNAc
# In short: as §1
# [17] = target: Gal(b1-4)GlcNAc(b1-3)Gal(b1-4)[Fuc(a1-3)]GlcNAc(b1-3)Gal(b1-4)[Fuc(a1-3)]GlcNAc
# In short: as §1
# [18] = target: Gal(b1-4)GlcNAc(b1-3)GalNAc
# In short: as §1
# [19] = target: Gal(b1-4)GlcNAc(b1-3)[Fuc(a1-3)GlcNAc(b1-6)]Gal(b1-4)Glc
# In short: as §1
# [20] = target: Gal(b1-4)GlcNAc(b1-3)[Gal(b1-4)GlcNAc(b1-6)]Gal(b1-4)GlcNAc
# In short: as §1
# [21] = target: Gal(b1-4)GlcNAc(b1-3)[GlcNAc(b1-6)]Gal(b1-4)GlcNAc
# In short: as §1
# [22] = target: Gal(b1-4)GlcNAc(b1-6)Gal(b1-4)GlcNAc
# In short: as §1
# [23] = target: Gal(b1-4)GlcNAc(b1-6)GalNAc
# In short: as §1
# [24] = target: Gal(b1-4)GlcNAc(b1-6)[Gal(b1-3)]GalNAc
# In short: as §1
# [25] = target: Gal(b1-4)GlcNAc(b1-6)[Gal(b1-4)GlcNAc(b1-3)]GalNAc
# In short: as §1
# Gal(b1-4)GlcNAc6P = target: Gal(b1-4)GlcNAc6P
# In short: as §1
# Gal(b1-6)Gal = target: Gal(b1-6)Gal
# In short: as §1
# Gal3S(b1-3)GalNAc = target: Gal3S(b1-3)GalNAc
# In short: as §1
# Gal3S(b1-3)GlcNAc = target: Gal3S(b1-3)GlcNAc
# In short: as §1
# [26] = target: Gal3S(b1-3)[Fuc(a1-4)]GlcNAc
# In short: as §1
# Gal3S(b1-4)Glc = target: Gal3S(b1-4)Glc
# In short: as §1
# Gal3S(b1-4)Glc6S = target: Gal3S(b1-4)Glc6S
# In short: as §1
# Gal3S(b1-4)GlcNAc = target: Gal3S(b1-4)GlcNAc
# In short: as §1
# [27] = target: Gal3S(b1-4)[Fuc(a1-3)]Glc6S
# In short: as §1
# [28] = target: Gal3S(b1-4)[Fuc(a1-3)]GlcNAc
# In short: as §1
# [29] = target: Gal3S(b1-4)[Fuc(a1-3)]GlcNAc6S
# In short: as §1
# Gal3S4S(b1-4)GlcNAc = target: Gal3S4S(b1-4)GlcNAc
# In short: as §1
binder,measurement,setting,value
B1,glycan array binding signal (z-score),[1],1.11
same,glycan array binding signal (z-score),[2],2.08
same,glycan array binding signal (z-score),[3],-0.725
same,glycan array binding signal (z-score),[4],2.12
same,glycan array binding signal (z-score),[5],2.27
same,glycan array binding signal (z-score),[6],2.1
same,glycan array binding signal (z-score),[7],2.06
same,glycan array binding signal (z-score),[8],2.4
same,glycan array binding signal (z-score),[9],1.29
same,glycan array binding signal (z-score),[10],0.528
same,glycan array binding signal (z-score),[11],-0.475
same,glycan array binding signal (z-score),[12],2.09
same,glycan array binding signal (z-score),[13],0.532
same,glycan array binding signal (z-score),[14],0.134
same,glycan array binding signal (z-score),[15],4.22
same,glycan array binding signal (z-score),[16],1.15
same,glycan array binding signal (z-score),[17],-0.157
same,glycan array binding signal (z-score),[18],-0.76
same,glycan array binding signal (z-score),[19],0.353
same,glycan array binding signal (z-score),[20],-0.512
same,glycan array binding signal (z-score),[21],-0.842
same,glycan array binding signal (z-score),[22],-0.557
same,glycan array binding signal (z-score),[23],0.521
same,glycan array binding signal (z-score),[24],-0.166
same,glycan array binding signal (z-score),[25],0.339
same,glycan array binding signal (z-score),Gal(b1-4)GlcNAc6P,0.29
same,glycan array binding signal (z-score),Gal(b1-6)Gal,-0.387
same,glycan array binding signal (z-score),Gal3S(b1-3)GalNAc,-1.06
same,glycan array binding signal (z-score),Gal3S(b1-3)GlcNAc,-0.911
same,glycan array binding signal (z-score),[26],-0.386
same,glycan array binding signal (z-score),Gal3S(b1-4)Glc,-0.905
same,glycan array binding signal (z-score),Gal3S(b1-4)Glc6S,-0.522
same,glycan array binding signal (z-score),Gal3S(b1-4)GlcNAc,-0.525
same,glycan array binding signal (z-score),[27],2.28
same,glycan array binding signal (z-score),[28],-0.588
same,glycan array binding signal (z-score),[29],-0.253
same,glycan array binding signal (z-score),Gal3S4S(b1-4)GlcNAc,-0.431
